The results in this text go back to the supplement of paper PMC9938546.

Counter-ions that a name gives are not always drawn. Some of the results follow. Baselines shift from plate to plate; read single values as rough.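 HCT116-GFP is a human colorectal cancer cell line that carries a KRAS mutation, is microsatellite-unstable and always makes green fluorescent protein; the immune cells came from healthy donors. Live-cell imaging of the green signal stood in for cancer cell survival, and activated immune cells alone cut survival to about half.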

In this assay the test system is HCT116-GFP. Description: HCT116-GFP viability (GFP intensity) relative to untreated HCT116-GFP monoculture control, co-culture with activated PBMCs; higher = less cancer cell killing. As to conditions: culture: co-culture with anti-CD3/IL2 activated PBMCs 1:1; 10 µM; 72 h.
Turning to `O=C(O)CN(CCN(CC(=O)O)CC(=O)O)CCN(CC(=O)O)CC(=O)O` [Pentetic acid], the HCT116-GFP viability worked out at 71.7%.

As for `C#CCN(C)CCCOc1ccc(Cl)cc1Cl` [Clorgyline hydrochloride], the HCT116-GFP viability is 57.2%.

In turn, `Cn1c(=O)c2c(ncn2CCO)n(C)c1=O` [Etofylline] displayed an HCT116-GFP viability of 25.9%.

`COc1ccccc1N1CCN(CCCNc2cc(=O)n(C)c(=O)n2C)CC1` [Urapidil hydrochloride] registered an HCT116-GFP viability of 68.2%.

In turn, `COc1nc(N)nc2c1ncn2[C@@H]1O[C@H](CO)[C@@H](O)[C@@H]1O` [Nelarabine] came in with an HCT116-GFP viability of 40.3%.

For `CCC(=O)OCC(=O)[C@@]1(OC(=O)CC)[C@@H](C)C[C@H]2[C@@H]3CCC4=CC(=O)C=C[C@]4(C)[C@@]3(Cl)[C@@H](O)C[C@@]21C` [Beclomethasone dipropionate], the HCT116-GFP viability worked out at 80.6%.

Turning to `CCN(CC)Cc1cc(Nc2ccnc3cc(Cl)ccc23)ccc1O` [Amodiaquin dihydrochloride dihydrate], the HCT116-GFP viability stood at 48.5%.

With `Clc1ccc(C(Cn2ccnc2)OCc2csc3c(Cl)cccc23)c(Cl)c1` (stereo not drawn) [Sertaconazole nitrate], the HCT116-GFP viability came out at 21%.

In turn, `CC(=O)OCC1=C(C(=O)O)N2C(=O)[C@@H](NC(=O)Cc3cccs3)[C@H]2SC1` [Cephalothin sodium salt] yielded an HCT116-GFP viability of 75.6%.

Molecule `CCN(CC)CCNC(=O)COc1ccc(OC)cc1` [Mefexamide hydrochloride] yielded an HCT116-GFP viability of 46%.

In turn, `CC1(C)S[C@@H]2[C@H](NC(=O)Cc3ccccc3)C(=O)N2[C@H]1C(=O)O` [Benzathine benzylpenicillin] came in with an HCT116-GFP viability of 41.2%.

The molecule `CC1(C)S[C@@H]2[C@H](NC(=O)Cc3ccccc3)C(=O)N2[C@H]1C(=O)O` [Benzylpenicillin sodium] had an HCT116-GFP viability of 40.5%.

Regarding `CCCCc1nc(Cl)c(CO)n1Cc1ccc(-c2ccccc2-c2nnn[nH]2)cc1` [Losartan], the HCT116-GFP viability was found to be 37.7%.

`O=C1NCCN1CCN1CCC(c2cn(-c3ccc(F)cc3)c3ccc(Cl)cc23)CC1` [Sertindole] returned an HCT116-GFP viability of 4.96%.

In turn, `O=C1CCC(N2C(=O)c3ccccc3C2=O)C(=O)N1` (stereo not drawn) [Thalidomide] came in with an HCT116-GFP viability of 51.5%.

In turn, `O=C1OC(CN2CCOCC2)CN1/N=C/c1ccc([N+](=O)[O-])o1` (stereo not drawn) [Furaltadone hydrochloride] yielded an HCT116-GFP viability of 60.1%.

The molecule `CNCCCN1c2ccccc2CCc2ccccc21` [Desipramine hydrochloride] yielded an HCT116-GFP viability of 64%.

Molecule `CCC(C)n1ncn(-c2ccc(N3CCN(c4ccc(OCC5COC(Cn6cncn6)(c6ccc(Cl)cc6Cl)O5)cc4)CC3)cc2)c1=O` (stereo not drawn) [Itraconazole] gave an HCT116-GFP viability of 33.5%.

For the molecule `Cc1cccc(Nc2ccccc2C(=O)O)c1C` [Mefenamic acid], the HCT116-GFP viability worked out at 43.1%.

For `C[n+]1ccccc1/C=N/O` [Pralidoxime chloride], the HCT116-GFP viability was determined as 72.1%.

`O=C(O)CCNC(=O)c1ccc(/N=N/c2ccc(O)c(C(=O)O)c2)cc1` [Balsalazide Sodium] returned an HCT116-GFP viability of 86.5%.

As to `COC(=O)C1=C(C)NC(C)=C(C(=O)OCCN(C)Cc2ccccc2)C1c1cccc([N+](=O)[O-])c1` (stereo not drawn) [Nicardipine hydrochloride], the HCT116-GFP viability worked out at 27.3%.

The molecule `CN1CCN(c2c(F)cc3c(=O)c(C(=O)O)cn4c3c2SCC4)CC1` [Rufloxacin] registered an HCT116-GFP viability of 27.7%.

Molecule `COC(=O)C1=C(C)NC(C)=C(C(=O)OCC(C)C)C1c1ccccc1[N+](=O)[O-]` (stereo not drawn) [Nisoldipine] showed an HCT116-GFP viability of 15.8%.

`NC(=O)NC1NC(=O)NC1=O` (stereo not drawn) [Allantoin] registered an HCT116-GFP viability of 36.8%.

For the molecule `CN(C)CCOC(c1ccc(Cl)cc1)c1ccccn1` (stereo not drawn) [Carbinoxamine maleate salt], the HCT116-GFP viability stood at 58%.

As for `O=C1CCc2ccc(OCCCCN3CCN(c4cccc(Cl)c4Cl)CC3)cc2N1` [Aripiprazole], the HCT116-GFP viability stood at 31.1%.

The molecule `Cc1ccccc1C(OCCN(C)C)c1ccccc1` (stereo not drawn) [Orphenadrine hydrochloride] gave an HCT116-GFP viability of 51.4%.

As to `O=C1C(O)=C([C@H]2CC[C@H](c3ccc(Cl)cc3)CC2)C(=O)c2ccccc21` [Atovaquone], the HCT116-GFP viability amounted to 36.9%.

Turning to `CC(C)NCC(O)c1ccc(O)c(O)c1` (single isomer, unassigned; (-)) [(-)-Isoproterenol hydrochloride], the HCT116-GFP viability came out at 2.83%.

As for `CN1CCOC(c2ccccc2)c2ccccc2C1` (stereo not drawn) [Nefopam hydrochloride], the HCT116-GFP viability amounted to 52.1%.

`CN1CCC(=C2c3ccccc3CCc3sccc32)CC1` [Pizotifen malate] came in with an HCT116-GFP viability of 59.8%.

As for `CCN(CC)CCOc1ccc(C(=C(Cl)c2ccccc2)c2ccccc2)cc1` [Clomiphene citrate (Z,E)], the HCT116-GFP viability was found to be 7.23%.

The molecule `CN(C)[C@@H]1C(O)=C(C(=O)NCNCCCC[C@H](N)C(=O)O)C(=O)[C@@]2(O)C(O)=C3C(=O)c4c(O)cccc4[C@@](C)(O)[C@H]3C[C@@H]12` [Lymecycline] gave an HCT116-GFP viability of 42.6%.

For the molecule `CCCCNc1ccc(C(=O)OCCN(C)C)cc1` [Tetracaïne hydrochloride], the HCT116-GFP viability was 40.4%.

`COc1ccccc1N1CCN(CCCCNC(=O)c2ccc3ccccc3c2)CC1` showed an HCT116-GFP viability of 48.7%.

The molecule `CCC1NC(=O)c2cc(S(N)(=O)=O)c(Cl)cc2N1` (stereo not drawn) [Quinethazone] gave an HCT116-GFP viability of 38.7%.

Take `Cc1cnc(C(=O)NCCc2ccc(S(=O)(=O)NC(=O)NC3CCCCC3)cc2)cn1` [Glipizide]: the HCT116-GFP viability was found to be 45.5%.

The molecule `O=C1[C@H](CC[C@H](O)c2ccc(F)cc2)[C@@H](c2ccc(O)cc2)N1c1ccc(F)cc1` [Ezetimibe] came in with an HCT116-GFP viability of 43.9%.

`CC(C)(C)NC[C@H](O)COc1ccccc1C1CCCC1` [Penbutolol sulfate] came in with an HCT116-GFP viability of 46.1%.

The molecule `COc1ccc(C(=O)c2ccccc2O)c(O)c1` [Dioxybenzone] gave an HCT116-GFP viability of 67%.

For the molecule `Nc1nc2[nH]cc(CCc3ccc(C(=O)N[C@@H](CCC(=O)O)C(=O)O)cc3)c2c(=O)[nH]1` [Pemetrexed disodium], the HCT116-GFP viability worked out at 27.9%.

Molecule `COc1ccc(CN2CCN(C(c3ccc(F)cc3)c3ccc(F)cc3)CC2)c(OC)c1OC` [Lomerizine hydrochloride] showed an HCT116-GFP viability of 16.7%.

`Cc1cnc(C(=O)O)c[n+]1[O-]` [Acipimox] had an HCT116-GFP viability of 51.3%.

`O=C(OCCOCCO)c1ccccc1Nc1cccc(C(F)(F)F)c1` [Etofenamate] gave an HCT116-GFP viability of 48.5%.

Take `O=C(O)[C@H]1/C(=C/CO)O[C@@H]2CC(=O)N21` [Clavulanate potassium salt]: the HCT116-GFP viability is 46.8%.

Molecule `C#C[C@]1(O)CC[C@H]2[C@@H]3CCC4=C(CCC(=O)C4)[C@H]3CC[C@@]21C` [Norethynodrel] displayed an HCT116-GFP viability of 31.3%.

In turn, `CC[N+](CC)(CC)CCOc1cccc(OCC[N+](CC)(CC)CC)c1OCC[N+](CC)(CC)CC` [Gallamine triethiodide] displayed an HCT116-GFP viability of 38.4%.

`CCOC(=O)[N-]c1c[n+](N2CCOCC2)no1` [Molsidomine] came in with an HCT116-GFP viability of 44.9%.

`NS(=O)(=O)c1cc2c(cc1Cl)NC(CC1CCCC1)NS2(=O)=O` (stereo not drawn) [Cyclopenthiazide] registered an HCT116-GFP viability of 45.1%.

As to `CC(C)(C)NCC(O)c1cc(O)cc(O)c1` (stereo not drawn) [Terbutaline hemisulfate], the HCT116-GFP viability is 49.3%.

Turning to `CN[C@@H]1[C@H](O[C@H]2[C@H](O[C@H]3[C@H](O)[C@@H](O)[C@H](NC(=N)N)[C@@H](O)[C@@H]3NC(=N)N)O[C@@H](C)[C@]2(O)CO)O[C@@H](CO)[C@H](O)[C@H]1O` [Dihydrostreptomycin sulfate], the HCT116-GFP viability was 54.5%.

`NCc1ccc(S(N)(=O)=O)cc1` [Mafenide hydrochloride] had an HCT116-GFP viability of 39.7%.

For the molecule `CCc1oc2ccccc2c1C(=O)c1cc(Br)c(O)c(Br)c1` [Benzbromarone], the HCT116-GFP viability was determined as 34.4%.

Consider `CC/C(=C(\c1ccccc1)c1ccc(OCCN(C)C)cc1)c1ccccc1` [Tamoxifen citrate], for which the HCT116-GFP viability turned out to be 56.3%.

`CCCCC[C@H](O)/C=C/[C@H]1[C@H](O)CC(=O)[C@@H]1CCCCCCC(=O)O` [Alprostadil] came in with an HCT116-GFP viability of 48.9%.

Turning to `CCN1CCC[C@H]1CNC(=O)c1c(O)c(Cl)cc(Cl)c1OC` [Raclopride], the HCT116-GFP viability is 46.7%.

`CCOc1ccc(NC(C)=O)cc1` [Phenacetin] came in with an HCT116-GFP viability of 32.8%.

Consider `CN1CCC[C@@H]1CCO[C@](C)(c1ccccc1)c1ccc(Cl)cc1` [Clemastine fumarate], for which the HCT116-GFP viability is 56.9%.

`COc1cc2ncnc(Nc3ccc(F)c(Cl)c3)c2cc1OCCCN1CCOCC1` [Gefitinib] had an HCT116-GFP viability of 49.4%.

For `CC(C(=O)O)c1ccc(C(=O)c2cccs2)cc1` (stereo not drawn) [Suprofen], the HCT116-GFP viability worked out at 58.7%.

`Brc1c(NC2=NCCN2)ccc2nccnc12` [Brimonidine L-Tartrate]: the HCT116-GFP viability was 40.3%.

For the molecule `CN(C)CCOC(=O)COc1ccc(Cl)cc1` [Meclofenoxate hydrochloride], the HCT116-GFP viability is 71.8%.

`CCCc1nc(C(C)(C)O)c(C(=O)O)n1Cc1ccc(-c2ccccc2-c2nnn[nH]2)cc1` [Olmesartan] registered an HCT116-GFP viability of 35.3%.

On to `OC(CCN1CCCCC1)(c1ccccc1)C1CCCCC1` (stereo not drawn) [Trihexyphenidyl-D,L Hydrochloride], for which the HCT116-GFP viability is 74%.

The molecule `N=C(N)N/N=C/c1c(Cl)cccc1Cl` [Guanabenz acetate] gave an HCT116-GFP viability of 52.2%.

Molecule `CN(CCOc1ccc(CC2SC(=O)NC2=O)cc1)c1ccccn1` (stereo not drawn) [Rosiglitazone Hydrochloride] showed an HCT116-GFP viability of 20.8%.

Turning to `CCC(=O)OCC(=O)[C@@]1(OC(=O)CC)[C@H](C)C[C@H]2[C@H]3[C@H]([C@@H](O)C[C@@]21C)[C@@]1(C)C=CC(=O)C=C1C[C@H]3Cl` [Alclometasone dipropionate], the HCT116-GFP viability turned out to be 82.3%.

Regarding `COc1ccc(C[C@@H]2c3cc(OC)c(OC)cc3CC[N@+]2(C)CCC(=O)OCCCCCOC(=O)CC[N@@+]2(C)CCc3cc(OC)c(OC)cc3[C@H]2Cc2ccc(OC)c(OC)c2)cc1OC` [Cisatracurium besylate], the HCT116-GFP viability turned out to be 41.2%.

`Nc1cc(-c2ccncc2)c[nH]c1=O` [Amrinone] had an HCT116-GFP viability of 69.3%.

The molecule `CC(N)C12CC3CC(CC(C3)C1)C2` (stereo not drawn) [Rimantadine Hydrochloride] had an HCT116-GFP viability of 54.1%.

Molecule `CN(C)[C@@H]1C(O)=C(C(N)=O)C(=O)[C@@]2(O)C(O)=C3C(=O)c4c(O)ccc(Cl)c4[C@@H](O)[C@H]3C[C@@H]12` [Demeclocycline hydrochloride] returned an HCT116-GFP viability of 72.1%.

`O=C1c2ccccc2S(=O)(=O)N1CCCCN1CCN(c2ncccn2)CC1` [Ipsapirone]: the HCT116-GFP viability turned out to be 33.7%.
